From the supplement of paper PMC6411743
± gives the standard deviation of the averaged measurements. The list shows a part of the results.

Sequences of proteins named here, by UniProt entry; tags and fusion partners are left off. A change or cut given only in a name is not applied to a line headed by its entry.
UniProt Q9UNX4: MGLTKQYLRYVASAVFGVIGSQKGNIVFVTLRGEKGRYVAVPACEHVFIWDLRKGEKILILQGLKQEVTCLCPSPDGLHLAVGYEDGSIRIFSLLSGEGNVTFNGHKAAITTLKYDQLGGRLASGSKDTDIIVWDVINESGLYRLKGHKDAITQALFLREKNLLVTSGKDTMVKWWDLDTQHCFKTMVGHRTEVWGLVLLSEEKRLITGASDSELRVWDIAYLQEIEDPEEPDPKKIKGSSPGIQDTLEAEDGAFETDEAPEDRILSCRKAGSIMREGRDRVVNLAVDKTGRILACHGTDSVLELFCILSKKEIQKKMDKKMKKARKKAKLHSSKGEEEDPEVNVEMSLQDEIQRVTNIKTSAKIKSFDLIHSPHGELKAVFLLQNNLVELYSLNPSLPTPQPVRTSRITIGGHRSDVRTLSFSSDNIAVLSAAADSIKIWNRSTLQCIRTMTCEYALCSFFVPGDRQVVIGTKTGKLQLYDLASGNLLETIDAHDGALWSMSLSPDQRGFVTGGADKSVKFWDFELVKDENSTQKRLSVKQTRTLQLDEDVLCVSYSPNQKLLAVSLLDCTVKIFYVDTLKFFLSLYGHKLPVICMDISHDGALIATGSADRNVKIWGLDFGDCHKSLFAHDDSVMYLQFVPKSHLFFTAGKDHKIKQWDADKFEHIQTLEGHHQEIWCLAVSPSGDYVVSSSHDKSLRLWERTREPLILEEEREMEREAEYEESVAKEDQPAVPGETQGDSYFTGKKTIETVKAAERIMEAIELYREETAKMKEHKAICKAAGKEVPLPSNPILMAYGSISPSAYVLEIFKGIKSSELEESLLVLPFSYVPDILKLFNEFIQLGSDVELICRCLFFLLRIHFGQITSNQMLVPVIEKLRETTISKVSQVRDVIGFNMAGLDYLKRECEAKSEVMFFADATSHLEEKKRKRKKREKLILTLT
UniProt Q9UNQ2: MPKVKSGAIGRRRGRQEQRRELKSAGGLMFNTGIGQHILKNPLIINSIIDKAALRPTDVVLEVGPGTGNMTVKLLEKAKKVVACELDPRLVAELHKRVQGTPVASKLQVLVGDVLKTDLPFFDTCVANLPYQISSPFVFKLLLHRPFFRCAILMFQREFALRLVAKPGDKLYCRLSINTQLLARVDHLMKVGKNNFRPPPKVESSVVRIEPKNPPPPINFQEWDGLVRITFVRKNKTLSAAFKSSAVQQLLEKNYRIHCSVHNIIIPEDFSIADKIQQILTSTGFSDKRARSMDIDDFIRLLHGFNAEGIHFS
UniProt Q9Y217: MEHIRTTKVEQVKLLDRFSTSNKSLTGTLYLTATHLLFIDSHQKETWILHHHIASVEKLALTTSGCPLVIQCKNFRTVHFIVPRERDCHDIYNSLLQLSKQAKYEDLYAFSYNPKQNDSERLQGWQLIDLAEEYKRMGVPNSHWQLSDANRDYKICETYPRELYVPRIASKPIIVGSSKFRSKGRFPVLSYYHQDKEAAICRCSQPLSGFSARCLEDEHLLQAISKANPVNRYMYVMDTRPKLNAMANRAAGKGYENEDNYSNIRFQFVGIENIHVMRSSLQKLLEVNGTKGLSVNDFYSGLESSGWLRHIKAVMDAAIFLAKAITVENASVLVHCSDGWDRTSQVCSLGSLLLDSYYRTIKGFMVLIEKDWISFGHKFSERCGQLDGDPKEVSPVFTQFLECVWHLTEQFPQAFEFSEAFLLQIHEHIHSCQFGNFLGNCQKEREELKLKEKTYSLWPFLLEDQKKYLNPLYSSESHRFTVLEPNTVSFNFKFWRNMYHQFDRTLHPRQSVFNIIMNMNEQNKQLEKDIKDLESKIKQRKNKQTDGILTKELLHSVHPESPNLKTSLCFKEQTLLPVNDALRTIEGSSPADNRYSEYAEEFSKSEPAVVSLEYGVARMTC
UniProt Q9Y2P8: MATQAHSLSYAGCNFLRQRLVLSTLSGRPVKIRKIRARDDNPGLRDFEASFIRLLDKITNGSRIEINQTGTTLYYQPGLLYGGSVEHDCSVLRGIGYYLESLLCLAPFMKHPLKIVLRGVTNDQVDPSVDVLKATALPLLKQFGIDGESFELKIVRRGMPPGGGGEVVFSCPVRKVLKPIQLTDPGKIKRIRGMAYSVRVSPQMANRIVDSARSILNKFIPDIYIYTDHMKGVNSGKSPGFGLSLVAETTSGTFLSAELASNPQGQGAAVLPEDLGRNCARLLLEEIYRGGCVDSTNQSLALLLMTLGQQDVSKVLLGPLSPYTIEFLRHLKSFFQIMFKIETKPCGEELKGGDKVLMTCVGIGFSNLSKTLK
UniProt Q9Y3B4: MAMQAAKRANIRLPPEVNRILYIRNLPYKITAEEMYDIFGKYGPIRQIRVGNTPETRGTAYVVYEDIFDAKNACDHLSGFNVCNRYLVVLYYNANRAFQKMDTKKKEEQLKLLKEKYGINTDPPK
UniProt Q9Y2Y1: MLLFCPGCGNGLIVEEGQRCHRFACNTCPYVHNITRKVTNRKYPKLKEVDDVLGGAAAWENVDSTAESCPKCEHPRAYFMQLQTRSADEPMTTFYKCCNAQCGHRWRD
UniProt Q9Y4Z0: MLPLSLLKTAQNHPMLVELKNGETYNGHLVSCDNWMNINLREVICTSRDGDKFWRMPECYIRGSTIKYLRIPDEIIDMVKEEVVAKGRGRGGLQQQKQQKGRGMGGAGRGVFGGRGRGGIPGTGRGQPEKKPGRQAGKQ
UniProt Q9UNN5: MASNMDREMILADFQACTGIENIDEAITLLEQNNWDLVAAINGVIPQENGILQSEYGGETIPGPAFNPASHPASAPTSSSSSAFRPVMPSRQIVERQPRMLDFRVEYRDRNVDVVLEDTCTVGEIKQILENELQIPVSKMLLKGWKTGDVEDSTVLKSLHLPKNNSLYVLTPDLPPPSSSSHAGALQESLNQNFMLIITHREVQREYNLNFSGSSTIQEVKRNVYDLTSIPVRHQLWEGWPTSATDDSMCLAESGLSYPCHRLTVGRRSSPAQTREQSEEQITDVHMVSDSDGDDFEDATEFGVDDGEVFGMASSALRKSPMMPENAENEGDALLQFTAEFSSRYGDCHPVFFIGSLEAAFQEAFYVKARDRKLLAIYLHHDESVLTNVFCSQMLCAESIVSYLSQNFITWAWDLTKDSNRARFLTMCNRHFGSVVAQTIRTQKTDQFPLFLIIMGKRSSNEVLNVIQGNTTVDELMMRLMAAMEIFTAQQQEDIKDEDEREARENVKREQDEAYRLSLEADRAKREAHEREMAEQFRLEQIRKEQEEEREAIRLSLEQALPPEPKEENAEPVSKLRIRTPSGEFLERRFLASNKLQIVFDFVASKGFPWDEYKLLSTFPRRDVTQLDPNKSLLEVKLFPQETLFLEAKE
UniProt Q9UMZ2: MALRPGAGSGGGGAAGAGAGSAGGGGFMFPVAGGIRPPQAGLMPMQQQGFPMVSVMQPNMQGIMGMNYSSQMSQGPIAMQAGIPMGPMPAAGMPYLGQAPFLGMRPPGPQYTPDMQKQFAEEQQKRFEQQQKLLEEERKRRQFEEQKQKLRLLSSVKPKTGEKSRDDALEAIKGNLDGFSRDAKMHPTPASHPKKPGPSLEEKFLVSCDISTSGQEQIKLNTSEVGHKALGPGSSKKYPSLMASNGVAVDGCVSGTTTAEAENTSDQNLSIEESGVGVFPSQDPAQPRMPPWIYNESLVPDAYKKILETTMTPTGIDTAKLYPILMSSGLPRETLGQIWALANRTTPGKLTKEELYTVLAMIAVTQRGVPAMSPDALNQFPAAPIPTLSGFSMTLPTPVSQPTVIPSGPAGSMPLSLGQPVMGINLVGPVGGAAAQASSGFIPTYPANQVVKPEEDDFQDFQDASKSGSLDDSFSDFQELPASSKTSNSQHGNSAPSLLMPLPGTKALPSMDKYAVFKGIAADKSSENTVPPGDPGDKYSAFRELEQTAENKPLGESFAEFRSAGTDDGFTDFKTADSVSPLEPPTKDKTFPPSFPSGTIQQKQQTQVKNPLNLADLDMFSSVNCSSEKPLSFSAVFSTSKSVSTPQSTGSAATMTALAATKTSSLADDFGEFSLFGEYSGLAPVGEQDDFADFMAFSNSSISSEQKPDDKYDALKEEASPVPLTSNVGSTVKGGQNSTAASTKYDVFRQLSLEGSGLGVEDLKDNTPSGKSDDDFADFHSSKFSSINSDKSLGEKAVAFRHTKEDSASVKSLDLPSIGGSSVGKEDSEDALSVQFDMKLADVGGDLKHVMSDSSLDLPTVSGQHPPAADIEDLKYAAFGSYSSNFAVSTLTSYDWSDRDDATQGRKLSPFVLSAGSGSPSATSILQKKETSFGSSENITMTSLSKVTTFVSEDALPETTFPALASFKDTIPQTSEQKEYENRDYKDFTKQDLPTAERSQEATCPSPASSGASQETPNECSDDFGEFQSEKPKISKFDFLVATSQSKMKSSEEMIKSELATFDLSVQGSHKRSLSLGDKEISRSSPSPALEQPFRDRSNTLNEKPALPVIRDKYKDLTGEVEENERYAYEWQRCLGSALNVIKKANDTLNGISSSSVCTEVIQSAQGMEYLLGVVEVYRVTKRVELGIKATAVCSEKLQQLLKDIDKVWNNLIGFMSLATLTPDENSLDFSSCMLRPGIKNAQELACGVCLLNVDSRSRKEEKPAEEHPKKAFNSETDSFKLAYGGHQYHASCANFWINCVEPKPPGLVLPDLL
UniProt Q9Y2U8: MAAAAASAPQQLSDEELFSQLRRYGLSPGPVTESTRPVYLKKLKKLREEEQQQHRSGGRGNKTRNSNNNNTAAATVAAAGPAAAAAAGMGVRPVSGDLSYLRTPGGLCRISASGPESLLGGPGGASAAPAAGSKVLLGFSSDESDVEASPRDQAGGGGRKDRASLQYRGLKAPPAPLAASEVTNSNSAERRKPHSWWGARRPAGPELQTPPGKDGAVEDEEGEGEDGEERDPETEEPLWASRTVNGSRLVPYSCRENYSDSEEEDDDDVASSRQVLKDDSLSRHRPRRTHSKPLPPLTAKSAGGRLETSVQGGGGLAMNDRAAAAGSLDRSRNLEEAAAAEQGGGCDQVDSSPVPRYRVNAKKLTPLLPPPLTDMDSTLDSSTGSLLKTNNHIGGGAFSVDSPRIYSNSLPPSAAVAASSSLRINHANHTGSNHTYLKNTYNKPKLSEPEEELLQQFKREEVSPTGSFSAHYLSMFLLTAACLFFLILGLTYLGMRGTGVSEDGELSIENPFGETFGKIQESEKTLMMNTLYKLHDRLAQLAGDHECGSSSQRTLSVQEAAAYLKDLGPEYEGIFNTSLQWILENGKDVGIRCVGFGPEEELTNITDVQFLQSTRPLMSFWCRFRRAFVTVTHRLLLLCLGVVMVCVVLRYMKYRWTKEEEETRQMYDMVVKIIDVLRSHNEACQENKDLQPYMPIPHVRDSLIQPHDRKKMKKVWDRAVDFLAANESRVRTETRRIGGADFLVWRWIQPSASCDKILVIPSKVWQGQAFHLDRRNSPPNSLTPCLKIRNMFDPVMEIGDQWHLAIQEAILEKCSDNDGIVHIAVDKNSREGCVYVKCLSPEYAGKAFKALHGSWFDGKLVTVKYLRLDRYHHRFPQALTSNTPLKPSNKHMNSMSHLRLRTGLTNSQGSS
UniProt Q9Y244: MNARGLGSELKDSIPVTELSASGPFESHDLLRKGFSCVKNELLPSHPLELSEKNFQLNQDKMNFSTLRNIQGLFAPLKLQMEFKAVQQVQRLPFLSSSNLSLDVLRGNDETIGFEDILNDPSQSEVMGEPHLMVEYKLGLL
UniProt Q9Y4C8: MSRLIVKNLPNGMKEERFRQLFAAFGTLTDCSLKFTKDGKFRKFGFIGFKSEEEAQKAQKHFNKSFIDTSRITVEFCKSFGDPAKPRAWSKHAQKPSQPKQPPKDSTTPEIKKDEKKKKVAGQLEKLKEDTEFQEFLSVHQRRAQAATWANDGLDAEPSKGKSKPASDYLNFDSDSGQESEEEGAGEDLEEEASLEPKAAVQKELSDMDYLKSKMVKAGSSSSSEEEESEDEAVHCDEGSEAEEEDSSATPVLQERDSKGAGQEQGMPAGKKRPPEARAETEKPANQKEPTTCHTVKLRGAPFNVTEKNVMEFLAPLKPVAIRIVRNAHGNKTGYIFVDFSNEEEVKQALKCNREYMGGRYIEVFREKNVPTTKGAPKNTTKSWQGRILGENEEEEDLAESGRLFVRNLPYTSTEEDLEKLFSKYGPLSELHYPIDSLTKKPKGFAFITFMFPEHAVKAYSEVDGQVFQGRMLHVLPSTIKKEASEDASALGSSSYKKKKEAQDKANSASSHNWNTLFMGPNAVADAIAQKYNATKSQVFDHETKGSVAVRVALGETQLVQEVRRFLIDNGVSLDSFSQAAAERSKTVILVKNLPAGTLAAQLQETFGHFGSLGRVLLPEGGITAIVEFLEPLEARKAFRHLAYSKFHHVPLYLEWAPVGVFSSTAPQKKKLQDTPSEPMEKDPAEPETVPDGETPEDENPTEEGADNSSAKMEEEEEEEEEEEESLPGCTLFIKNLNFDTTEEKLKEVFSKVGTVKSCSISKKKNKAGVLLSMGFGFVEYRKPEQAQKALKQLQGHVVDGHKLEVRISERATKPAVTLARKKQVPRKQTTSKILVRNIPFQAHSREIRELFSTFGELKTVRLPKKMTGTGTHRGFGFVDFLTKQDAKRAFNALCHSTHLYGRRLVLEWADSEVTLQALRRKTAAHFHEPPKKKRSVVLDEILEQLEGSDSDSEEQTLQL

Compound: Nc1nc2c(ncn2[C@@H]2O[C@H](COP(=O)(O)OP(=O)(O)OP(=O)(O)O)[C@@H](O)[C@H]2O)c(=O)[nH]1 [guanosine triphosphate]
Experiment: NP40-soluble protein abundance relative to vehicle (solubility fold change) (ratio); higher = more soluble protein in presence of GTP
Summary of the method: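 Eight concentrations, 0.1 to 10 mM, were tested on Jurkat crude lysate for 10 min at room temperature and then 3 min at 37 °C, in three independent experiments. The lysate was solubilised with 0.8% NP40 and benzonase, ultracentrifuged, and the supernatant TMT-labelled for LC-MS/MS. Each value is the fold change against the detergent-processed vehicle in its own replicate, from vsn-normalised intensities.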

Target	NP40-soluble protein abundance (concentration: 0.1mM)	NP40-soluble protein abundance (concentration: 0.5mM)	NP40-soluble protein abundance (concentration: 1mM)	NP40-soluble protein abundance (concentration: 2mM)	NP40-soluble protein abundance (concentration: 4mM)	NP40-soluble protein abundance (concentration: 6mM)	NP40-soluble protein abundance (concentration: 8mM)	NP40-soluble protein abundance (concentration: 10mM)
LUC7L2 (UniProt Q9Y383)	1.09 ± 0.11	1.4 ± 0.08	1.58 ± 0.098	1.54 ± 0.18	1.56 ± 0.12	1.66 ± 0.12	1.74 ± 0.15	1.7 ± 0.16
UniProt Q9Y3U8 and related entries	0.976 ± 0.084	0.987 ± 0.01	1.04 ± 0.075	0.994 ± 0.14	0.921 ± 0.12	0.855 ± 0.09	0.514 ± 0.13	0.919 ± 0.16
UniProt Q9Y320 and related entries	0.982 ± 0.018	0.962 ± 0.017	0.896 ± 0.015	0.883 ± 0.053	0.856 ± 0.067	0.849 ± 0.043	0.835 ± 0.064	0.799 ± 0.093
WDR3 (UniProt Q9UNX4)	1.12 ± 0.08	1.15 ± 0.098	1.13 ± 0.061	1.42 ± 0.13	1.81 ± 0.16	1.98 ± 0.2	2.04 ± 0.12	1.974 ± 0.012
LRRC42 (UniProt Q9Y546)	1.08 ± 0.13	1.08 ± 0.034	1.11 ± 0.11	1.07 ± 0.099	1.03 ± 0.052	1.05 ± 0.057	1.09 ± 0.11	1.04 ± 0.083
NUBP2 (UniProt Q9Y5Y2)	0.986 ± 0.013	0.971 ± 0.039	0.945 ± 0.087	0.963 ± 0.043	0.973 ± 0.031	0.906 ± 0.041	0.908 ± 0.053	0.916 ± 0.069
UniProt Q9UNQ2	1.11 ± 0.093	1.13 ± 0.12	1.05 ± 0.16	1.22 ± 0.26	1.33 ± 0.3	1.31 ± 0.3	1.31 ± 0.26	1.44 ± 0.31
MTMR6 (UniProt Q9Y217)	1.068 ± 0.0063	1.02 ± 0.027	0.967 ± 0.016	0.969 ± 0.01	0.93 ± 0.031	0.907 ± 0.0098	0.947 ± 0.034	0.913 ± 0.042
RCL1 (UniProt Q9Y2P8)	1.03 ± 0.037	1.07 ± 0.063	0.993 ± 0.032	1.02 ± 0.031	1.02 ± 0.053	1.02 ± 0.012	0.97 ± 0.053	1.01 ± 0.033
CD2AP (UniProt Q9Y5K6)	0.957 ± 0.047	0.98 ± 0.041	0.975 ± 0.057	0.953 ± 0.075	0.938 ± 0.054	0.957 ± 0.062	0.97 ± 0.052	0.974 ± 0.064
UniProt Q9Y6J0 and related entries	1.03 ± 0.087	1.02 ± 0.052	1.09 ± 0.023	1.06 ± 0.065	1.08 ± 0.093	1.15 ± 0.11	1.16 ± 0.13	1.16 ± 0.12
SAMM50 (UniProt Q9Y512)	1.13 ± 0.15	1.18 ± 0.19	0.999 ± 0.1	1.13 ± 0.29	1.11 ± 0.19	1.1 ± 0.22	0.985 ± 0.098	0.949 ± 0.17
UniProt Q9Y3B4	0.958 ± 0.1	0.959 ± 0.09	1.15 ± 0.18	1.23 ± 0.17	1.32 ± 0.24	1.26 ± 0.18	1.33 ± 0.2	1.52 ± 0.29
UniProt Q9UPY3 and related entries	1.08 ± 0.064	1.04 ± 0.084	1.02 ± 0.037	1.08 ± 0.1	1.07 ± 0.076	1 ± 0.08	1.05 ± 0.055	1.01 ± 0.075
POLR3K (UniProt Q9Y2Y1)	0.875 ± 0.076	0.949 ± 0.082	1.05 ± 0.22	0.915 ± 0.034	0.9123 ± 0.0052	0.959 ± 0.061	0.979 ± 0.12	0.808 ± 0.051
UniProt Q9Y4Z0 and related entries	0.915 ± 0.038	0.88 ± 0.016	1.04 ± 0.09	1.02 ± 0.051	1.05 ± 0.027	0.979 ± 0.037	0.981 ± 0.11	1.05 ± 0.038
UniProt Q9Y5V3 and related entries	0.951 ± 0.025	1.01 ± 0.025	1.03 ± 0.075	1.11 ± 0.057	1.11 ± 0.14	1.12 ± 0.097	1.12 ± 0.17	1.12 ± 0.13
UniProt Q9UN36 and related entries	0.95 ± 0.081	0.947 ± 0.087	0.956 ± 0.076	0.924 ± 0.13	0.88 ± 0.12	0.894 ± 0.11	0.878 ± 0.078	0.922 ± 0.067
UniProt Q9UNN5 and related entries	0.995 ± 0.081	0.997 ± 0.077	0.95 ± 0.099	0.945 ± 0.089	0.924 ± 0.092	0.915 ± 0.082	0.908 ± 0.081	0.876 ± 0.089
TRPV2 (UniProt Q9Y5S1)	0.983 ± 0.033	1.01 ± 0.011	0.984 ± 0.025	0.995 ± 0.036	0.96 ± 0.036	0.982 ± 0.038	1.02 ± 0.059	0.967 ± 0.031
YARS2 (UniProt Q9Y2Z4)	0.936 ± 0.066	1.02 ± 0.029	0.867 ± 0.025	0.949 ± 0.095	0.884 ± 0.06	0.942 ± 0.1	0.811 ± 0.036	0.885 ± 0.068
MRPS33 (UniProt Q9Y291)	0.992 ± 0.16	1.04 ± 0.26	1.38 ± 0.51	1.48 ± 0.43	1.5 ± 0.52	1.31 ± 0.4	1.25 ± 0.39	1.4 ± 0.59
UniProt Q9Y450 and related entries	0.979 ± 0.041	0.982 ± 0.028	0.962 ± 0.035	0.95 ± 0.017	0.979 ± 0.031	0.958 ± 0.021	0.987 ± 0.054	0.977 ± 0.07
UniProt Q9UMZ2 and related entries	0.981 ± 0.047	0.965 ± 0.071	0.993 ± 0.065	0.911 ± 0.083	0.916 ± 0.077	0.918 ± 0.083	0.942 ± 0.026	0.918 ± 0.034
LEMD3 (UniProt Q9Y2U8)	0.989 ± 0.049	1 ± 0.038	1.01 ± 0.037	1.01 ± 0.048	0.999 ± 0.036	0.985 ± 0.033	1.01 ± 0.049	0.985 ± 0.027
POMP (UniProt Q9Y244)	0.87 ± 0.079	0.865 ± 0.045	1.05 ± 0.13	0.998 ± 0.032	0.989 ± 0.069	1.01 ± 0.051	1.02 ± 0.12	1.09 ± 0.14
RBM19 (UniProt Q9Y4C8)	1 ± 0.059	1 ± 0.052	1.05 ± 0.077	1.11 ± 0.065	1.22 ± 0.089	1.26 ± 0.077	1.38 ± 0.078	1.38 ± 0.13
UniProt Q9Y2Y0 and related entries	0.997 ± 0.066	0.999 ± 0.02	0.991 ± 0.034	1.01 ± 0.074	0.937 ± 0.13	0.982 ± 0.1	0.879 ± 0.08	0.856 ± 0.033

2 entries from above, field by field:
UniProt Q9Y320 and related entries
  NP40-soluble protein abundance (concentration: 0.1mM): 0.982 ± 0.018; NP40-soluble protein abundance (concentration: 0.5mM): 0.962 ± 0.017; NP40-soluble protein abundance (concentration: 1mM): 0.896 ± 0.015; NP40-soluble protein abundance (concentration: 2mM): 0.883 ± 0.053; NP40-soluble protein abundance (concentration: 4mM): 0.856 ± 0.067; NP40-soluble protein abundance (concentration: 6mM): 0.849 ± 0.043; NP40-soluble protein abundance (concentration: 8mM): 0.835 ± 0.064; NP40-soluble protein abundance (concentration: 10mM): 0.799 ± 0.093
WDR3 (UniProt Q9UNX4)
  NP40-soluble protein abundance (concentration: 0.1mM): 1.12 ± 0.08; NP40-soluble protein abundance (concentration: 0.5mM): 1.15 ± 0.098; NP40-soluble protein abundance (concentration: 1mM): 1.13 ± 0.061; NP40-soluble protein abundance (concentration: 2mM): 1.42 ± 0.13; NP40-soluble protein abundance (concentration: 4mM): 1.81 ± 0.16; NP40-soluble protein abundance (concentration: 6mM): 1.98 ± 0.2; NP40-soluble protein abundance (concentration: 8mM): 2.04 ± 0.12; NP40-soluble protein abundance (concentration: 10mM): 1.974 ± 0.012
